Two substances from paper PMC4488436 can be followed below.

The target of the test is T1, MalE-GltA^22-256 (Myxococcus xanthus) (UniProt Q1D6L0).
T1 sequence: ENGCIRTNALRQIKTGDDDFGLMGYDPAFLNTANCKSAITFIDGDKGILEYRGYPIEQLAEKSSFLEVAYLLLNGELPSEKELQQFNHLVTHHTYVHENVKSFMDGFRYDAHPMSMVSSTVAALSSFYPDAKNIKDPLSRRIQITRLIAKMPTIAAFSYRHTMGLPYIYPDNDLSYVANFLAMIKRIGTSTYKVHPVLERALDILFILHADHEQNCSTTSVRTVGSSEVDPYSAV
The test is described as follows: pull-down; 300 ug of each purified protein mixed in 1 ml buffer CB1 (20 mM Tris-HCl pH 7.4, 200 mM NaCl, 1 mM DTT, 1 mM EDTA), 1 h at 4°C; MalE protein held on amylose matrix (2 h, 4°C), washed, eluted with 10 mM maltose; immunoblot; both purified. A general note: Immunoblotting shows a protein as a band on a membrane.

These are yes or no findings as the source states them, for the method shown. Binding calls can cover weak binding; strength is not graded here.

As for “GltC^25-673-His6 (Myxococcus xanthus) (domain or fragment)”, the binding result is “binds”.

Turning to “GST-GltB^20-275 (Myxococcus xanthus) (domain or fragment)”, the binding result is on record as “binds”.
